Numbering of substitutions follows the chain as printed. Names may count otherwise. Results are given in words; binding and its absence hold for the method and conditions named. Some entries that bind do so weakly or less than the wild type. For part of these data: Where a sequence is shown, tags or fusion partners need not be part of it.
Tests used:
[1] = molecular target: T1, His-tagged N20C (Asn20 replaced with Cys) TRAP (B. subtilis) (UniProt P19466); assay: cross-linking; BMOE (0.04 mM, 8 Å sulfhydryl cross-linker); N20C TRAP 0.02 mM and/or D7C AT 0.08 mM; 1 mM tryptophan; PBS pH 7.2, 0.5 mM EDTA; 37°C 1 h; 15% SDS gel, Coomassie; both purified
T1 sequence: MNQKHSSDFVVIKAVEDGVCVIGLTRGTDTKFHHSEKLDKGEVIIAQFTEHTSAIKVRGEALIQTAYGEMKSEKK

[2] = molecular target: T2, (N20C)1(WT)10 TRAP hetero-11mer (B. subtilis) (UniProt P19466); assay: cross-linking; (N20C)1(WT)10 TRAP hetero-11mer with 5-fold excess D7C AT, BMOE in cross-linking buffer; complex purified on successive immunoaffinity columns against B. subtilis TRAP and B. subtilis AT; both purified
T2 sequence 1: T1 sequence with C20N
T2 sequence 2: T1 sequence

[3] = molecular target: T1, His-tagged N20C (Asn20 replaced with Cys) TRAP (B. subtilis); assay: co-IP; samples of N20C TRAP and/or D7C AT with or without BMOE precipitated with antibodies against B. subtilis TRAP; SDS PAGE and immunoblot with polyclonal antibodies against B. subtilis AT; both purified

Measured: binding

B1: AT containing a Cys substitution at residue 7 (D7C AT) (natural protein, B. subtilis, UniProt O31466 1-53, looked up)
chain: MVIATDCLEVACPKCERAGEIEGTPCPACSGKGVILTAQGYTLLDFIQKHLNK
notes: Anti-TRAP (AT) of Bacillus subtilis with Asp7 replaced by Cys; source: purified as described by Chen and Gollnick (19)
binds: all assays above
